# Library screening results

Values are the deposited “Percent Effect”, in %. How 0% and 100% were set is not recorded. Most values in the screen are low, and negative values occur. Compounds were drawn at random from those tested, without regard to their results.

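Whole-cell assay for inhibitors of Mycobacterium tuberculosis growth, labelled Cornell in the record; the read-out is not stated. The concentration is filed as 10 mM, unlikely as a test dose, so the dose is not known. The record gives no direction; compounds strong in two other growth screens of this library score well above the rest, so higher reads as stronger inhibition. About 53,000 compounds were tested under these conditions; 1.7% (about 900) showed 50% or more at least once.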

For O=C(c1ccco1)N(c1ccc(F)cn1)C1CCOCC1 the result was -26.33%. Cc1n[nH]c(C)c1NC(=O)CN1CCCC1Cn1cncn1 (stereo unspecified) read 18.33%. Result for NC(=O)C1CCN(C(=O)Cn2nc(-c3ccccc3)oc2=O)C1 (stereo unspecified) was -29.47%. CCc1nc2ccccc2c(=O)n1CC1(O)CCN(C(=O)C(C)C)CC1 gave 12.09%.

Cc1ccccc1-c1ncc(CNCc2csc(C(C)C)n2)s1 gave 14.33%. Result for Cc1nc(C)n(CC2CN(CC(=O)Nc3ccncc3)CCO2)n1 (stereo unspecified) was 13.17%. For COc1c(CNCc2cccc(CN3CCOCC3)c2)c(C)nn1C the result was 24.77%. Cc1ccc2oc(SCC(N)=O)nc2n1 read 32.41%.

For Cc1ccc(NC(=O)Cn2ncc(SCC(N)=O)c(Cl)c2=O)c(F)c1 the result was 10.6%. Result for Cn1ccc2c(-c3ccc(NCCO)nn3)ccnc21 was 41.01%. For CS(=O)(=O)CCOCCNc1ccc(C(F)(F)F)cc1C#N the result was 11.1%. CCOCC1CN(C(=O)c2ccoc2)Cc2nn(C)cc21 (stereo unspecified) gave 7.568%.

With CN1CCN(C2CCN(Cc3nc(-c4ccoc4)no3)CC2)C1=O the screen gave 4.29%. For CC(C)Nc1cc(N2CCC(n3cc(CCO)nn3)CC2)ncn1 the result was -44.33%. CCOc1ccc(NC2CCN(C(C)C)C2=O)cn1 (stereo unspecified) read -2.685%. For CSCc1cc(F)ccc1CNCc1cccc(O)c1 the result was 23.98%.

For Cc1cnn(CCNCc2ccccc2C#N)c1 the result was 3.283%. N[C@@H](Cc1ccccc1)c1nnc(S(=O)(=O)Cc2ccccc2)o1 gave -19.29%. [H][C@]12CCN(C(=O)Cc3ccc4c(c3)CCCC4)CC[C@]1([H])N(C)C(=O)CO2 read -18.65%. Result for COc1ccc(CC(=O)N2CCC(c3n[nH]c(C4CC4)n3)CC2)cc1 was 13.48%.

With O=C(NCc1cnn2ccccc12)NC1CCCC1 the screen gave 8.565%. CCOCC(=O)N1CCC[C@]2(C[C@@H](OCc3ccncc3)CO2)C1 read 23.42%. Cc1cc(NC(N)=O)ccc1C(=O)N(C)C gave -78.92%. NS(=O)(=O)N1CCc2ccc(NC(=O)Cc3ccc(F)cc3)cc21 read 3.922%.

For COc1ccc(C[C@H]2CN(C(=O)c3cnoc3)CC[C@@H]2OC)cc1 the result was 22.37%. CCCn1nc2c(cc1=O)CN(Cc1nnc(C3CC3)o1)CC2 read -23.8%. Result for Cc1cccc(CN2CCn3cc(CNC(=O)CC4CC4)nc3C2)n1 was 25.09%. Cc1ccc2c(n1)N(CCn1cccn1)CCN(C(=O)CC1CC1)C2.O=C(O)C(F)(F)F gave 8.406%.

With CC(C)c1nc2n(n1)CC(NCc1nc(-c3ccsc3)no1)CC2 (stereo unspecified) the screen gave 17.94%. [H][C@@]12CCCO[C@]1([H])[C@@H](N(C)Cc1cncnc1)CN2C(=O)COC gave 2.344%. With COc1cccc(-c2ccnc(C3CCNCC3)c2)c1 the screen gave -10.69%. For Nc1nc2c(c(=O)[nH]1)CCN(C(=O)c1cccc3nccnc13)C2 the result was 17.09%.

With [H][C@]12CCN[C@@]1([H])CN(C(=O)CC(F)(F)F)C2 the screen gave -12.27%. CCn1cc(CN2CCCN(C(=O)CCCn3cncn3)CC2)cn1 read 10.72%. O=C(c1cnnn1-c1ccccc1)N1CCCC(c2ccn[nH]2)C1 (stereo unspecified) read -11.07%. COc1cccc2sc(N(C)CC(=O)NCc3nc(C)no3)nc12 read 44.5%.

Cc1cc(C)n(CC2CCCN2C(=O)c2ccc3[nH]nnc3c2)n1 (stereo unspecified) gave -28.66%. Result for Cc1csc(CN(C)C(=O)Nc2cc(F)cc(N3CCCC3)c2)n1 was 33.98%. Result for CCn1c(N)nc2cc(C(=O)NCCCc3ccccn3)cnc21 was 19.84%. COc1ccnc(N2CCN(Cc3ncc(C(C)(C)C)o3)CC2)n1 gave -3.024%.

For CC(C)c1cc(C(=O)NCC2CCCN(c3ncccn3)C2)n(C)n1 (stereo unspecified) the result was 10.83%. For O=C(O)C(F)(F)F.[H][C@@]12CCN(Cc3ccc4c(c3)OCO4)C[C@]1([H])[C@H](C(=O)N(C)C)CCO2 the result was -46.82%. With COC(=O)COn1c(OC)nc2ccccc2c1=O the screen gave 32.68%. For CCOCCN1CCN(Cc2nnc(C3CC3)o2)CC1 the result was 12.78%.

Cc1csc(N2CCN(Cc3nccn3C)CC2C)n1 (stereo unspecified) gave 27.2%. [H][C@@]12C[C@H](C(=O)Nc3ccccc3)[C@@]([H])(CN(C(=O)Nc3ccccc3)C1)O2 read 5.318%. Result for Cc1nn(C)c(C)c1C(=O)NCc1cccnc1OC1CCCC1 was -8.575%. Cc1cc(C)n(CC(C)NC(=O)c2cc(C(C)C)on2)n1 (stereo unspecified) gave 38.83%.

With Cc1cc(NC(=O)CN2CCCC2c2noc(C)n2)n(C)n1 (stereo unspecified) the screen gave -32.24%. With CS(=O)(=O)N1CCC(OCCCc2ccccc2)C1 (stereo unspecified) the screen gave 18.05%. CC1(C)[C@H](Cc2cc(CN3CCCCC3)on2)C[C@@H]1NC(=O)C1CC1 read -9.171%. CNC(=O)c1ccc(C2CN(CC(=O)N(C)C)CCO2)nc1 (stereo unspecified) read 15.18%.

O=C(O)C(F)(F)F.O=C(O)C(F)(F)F.c1cncc(N2CCCn3nnc(CN4CCCCC4)c3C2)c1 read 6.033%. For Cc1nc(C)n(C2CCCN(C(=O)c3cccnc3NC(C)C)C2)n1 (stereo unspecified) the result was 2.455%. With Cc1cc(C)c(CNC(=O)N2CCNC(=O)C2)c(=O)[nH]1 the screen gave 11.85%. Result for COc1ccc(-c2nnc(C(C)N3CCC4(CC3)OCCO4)o2)cc1 (stereo unspecified) was 33.24%.

Result for CCc1cc(NCCCc2nc(C)no2)nc(-c2ccncc2)n1 was -7.568%. CCOCc1ccc(CNC2=NCCCN2)cc1.I read 24.22%. With N#Cc1cccc(N2CCCC3(CN(C(=O)[C@H]4CCCO4)CCO3)C2)c1 (stereo partly specified) the screen gave -6.734%. For Cc1ccc(C#N)c(N2CCC3(CCCN(C4CCOCC4)C3=O)C2)n1 (stereo unspecified) the result was 11.54%.

Some entries from above, unchanged:

{"smiles": "Cc1n[nH]c(C)c1NC(=O)CN1CCCC1Cn1cncn1", "stereo": "stereo unspecified", "percent effect": 18.33}
{"smiles": "CCc1nc2ccccc2c(=O)n1CC1(O)CCN(C(=O)C(C)C)CC1", "percent effect": 12.09}
{"smiles": "COc1ccc(C[C@H]2CN(C(=O)c3cnoc3)CC[C@@H]2OC)cc1", "percent effect": 22.37}
{"smiles": "COc1cccc(-c2ccnc(C3CCNCC3)c2)c1", "percent effect": -10.69}
{"smiles": "[H][C@@]12C[C@H](C(=O)Nc3ccccc3)[C@@]([H])(CN(C(=O)Nc3ccccc3)C1)O2", "percent effect": 5.318}

Data taken from ChEMBL document CHEMBL3988442, “University of Dundee, Small-Polar-MMV Screening Library” (2021).